# Experimental data reported in PubChem BioAssay AID1671190 (National Center for Advancing Translational Sciences (NCATS), 2021).
# The chains behind the UniProt entries cited, without tags or fusion partners. Where a name states a change or a piece, a line headed by the entry shows the natural chain unless it says otherwise.
# UniProt P18054: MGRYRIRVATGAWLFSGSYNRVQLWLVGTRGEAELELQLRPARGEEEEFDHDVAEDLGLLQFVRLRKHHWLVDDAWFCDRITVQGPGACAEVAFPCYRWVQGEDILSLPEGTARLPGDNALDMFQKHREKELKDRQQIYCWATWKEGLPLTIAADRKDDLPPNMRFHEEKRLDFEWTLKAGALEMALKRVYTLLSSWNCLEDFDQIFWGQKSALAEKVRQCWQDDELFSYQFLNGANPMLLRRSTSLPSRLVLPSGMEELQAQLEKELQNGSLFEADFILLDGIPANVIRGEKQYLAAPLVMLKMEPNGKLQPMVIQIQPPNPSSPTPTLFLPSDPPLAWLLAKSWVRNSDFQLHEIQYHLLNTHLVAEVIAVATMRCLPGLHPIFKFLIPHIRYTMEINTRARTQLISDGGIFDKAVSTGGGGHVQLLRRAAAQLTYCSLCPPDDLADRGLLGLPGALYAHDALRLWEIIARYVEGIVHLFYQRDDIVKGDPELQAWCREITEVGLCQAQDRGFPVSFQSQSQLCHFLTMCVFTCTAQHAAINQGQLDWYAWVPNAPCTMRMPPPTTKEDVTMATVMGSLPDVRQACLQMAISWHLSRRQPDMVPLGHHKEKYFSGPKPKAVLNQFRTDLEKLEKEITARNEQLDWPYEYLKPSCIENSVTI
# Out of some 580,000 compounds screened, about 6,100 (1.1%) were called active. This list was built around the results that the source calls inconclusive (neither active nor inactive); the mix of calls is not that of the screen. Calls follow the shape of the dose curve; as a rule, active = well fitted inhibition curve with a large enough effect; inconclusive = small, poorly fitted or top-dose-only effect, or another doubt; inactive = no such curve, though single readings can be large or run the other way. Where the call is inconclusive, the potency comes from a doubtful curve fit.
# Target: Polyunsaturated fatty acid lipoxygenase ALOX12 (Homo sapiens) (UniProt P18054)
# Test: Primary qHTS assay for inhibitors of human arachidonate 12S-lipoxygenase (ALOX12): Round 2
# Conditions: purified 12hLO, xylenol orange hydroperoxide absorbance; activity change, negative = inhibition: at 108 µM (top of the series) unless noted
# How it was run: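 Hydroperoxide product was detected by ferrous iron/xylenol orange as the 573 to 405 nm absorbance ratio. Arachidonic acid at 40 uM (final) was turned over for 30 min at room temperature by 150 nM human 12hLO, pH 7.0 Hepes buffer, after 15 min compound preincubation.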
# % is scaled to controls: 0 for no effect and ±100 for the full control effect; potency is read from the fitted curve at half-maximal effect.
Compound,"activity change, negative = inhibition",Potency
Nc1nonc1C(=O)NCCNCc1ccccc1OCc1ccc(F)cc1,inactive: -13.7%,–
CCOc1ccc(NC(=O)C(C)Oc2ccc(F)cc2)c2cccnc12 (centres undefined),inactive: 5.67%,–
CCCC(=O)Nc1c(S(=O)(=O)c2ccc(F)cc2)c(C)c(C)n1CC(C)C,inactive: 21%,–
CN1CC(=O)N(C2CCNC2)Cc2c(NC3CCCC3)ncnc21 (centres undefined),–,"inconclusive: 22.4 µM [inhibitor, full curve, poor fit]"
CCCNc1nc2ccccc2nc1C(=O)Nc1ccccc1,inactive: -11.9%,–
COc1ccccc1NC(=S)NC1CCCCC1,–,"inconclusive: 35.5 µM [inhibitor, partial curve, poor fit]"
S=c1nc[nH]c2c1[nH]c1ccccc12,–,"inconclusive: 3.55 µM [inhibitor, full curve, poor fit]"
O=C(COc1ccccc1)N(Cc1ccc(-c2ccc(Cl)cc2)o1)C1CCS(=O)(=O)C1 (centres undefined),–,"inconclusive: 35.5 µM [inhibitor, partial curve, poor fit]"
Cc1ccc(NC(=O)NC2(C(=O)NCc3ccco3)CCCCC2)cc1,–,"inconclusive: 2.82 µM [inhibitor, full curve, poor fit]"
Cc1ccc(S(=O)(=O)N2[C@@H](c3cccc(Cl)c3)C(C(=O)O)=CC[C@H]2c2cccc(Cl)c2)cc1,–,"inconclusive: 50.1 µM [inhibitor, single point]"
COc1cccc(/C=N\n2c(C)nnc2C)c1OC,inactive: 3.16%,–
COC(=O)c1ccc(COC(=O)Cc2ccc(Cl)cc2Cl)cc1,inactive: -30.8%,–
CCc1ccccc1N(C(=O)c1snc(C(N)=O)c1N)C(C(=O)NCC1CCCO1)c1c[nH]c2ccccc12 (centres undefined),inactive: -4.86%,–
Cc1ccc(S(=O)(=O)N2CCOC23CCN(S(=O)(=O)c2c(C)cc(C)cc2C)CC3)cc1,–,"inconclusive: 0.316 µM [inhibitor, full curve, poor fit]"
CS(=O)(=O)Nc1cccc(Nc2nccc3[nH]c(-c4cccc(C(F)(F)F)c4)cc23)c1,–,"inconclusive: 50.1 µM [inhibitor, partial curve, poor fit]"
COCCn1c(=O)c(CCc2ccccc2)nc2cnc(OCc3ccccc3)nc21,inactive: 7.31%,–
CC(C)c1noc(C(C)Sc2n[nH]c(-c3ccccc3F)n2)n1 (centres undefined),–,"inconclusive: 22.4 µM [inhibitor, single point]"
Cc1ccc2c(CNCc3ccccc3)cc(=O)oc2c1,–,"inconclusive: 56.2 µM [inhibitor, partial curve, poor fit]"
O=C(N/N=C/c1cc([N+](=O)[O-])ccc1O)/C(=C\c1cccs1)NC(=O)c1ccccc1,–,"inconclusive: 50.1 µM [inhibitor, partial curve, poor fit]"

# Record cards, from the list above. Order of values: activity change, negative = inhibition	Potency
# COc1cccc(/C=N\n2c(C)nnc2C)c1OC as listed: inactive: 3.16%	–
# Nc1nonc1C(=O)NCCNCc1ccccc1OCc1ccc(F)cc1 as listed: inactive: -13.7%	–
